Source: PMC12320246
These are yes or no findings as the source states them, for the method shown. In cells and extracts the contact can be indirect. Some binding calls cover weakened binding; strength is not graded here. For part of these data: Tags and fused reporters may be left off the sequences shown.

Sequences of proteins named here, by UniProt entry; tags and fusion partners are left off.
UniProt O00425: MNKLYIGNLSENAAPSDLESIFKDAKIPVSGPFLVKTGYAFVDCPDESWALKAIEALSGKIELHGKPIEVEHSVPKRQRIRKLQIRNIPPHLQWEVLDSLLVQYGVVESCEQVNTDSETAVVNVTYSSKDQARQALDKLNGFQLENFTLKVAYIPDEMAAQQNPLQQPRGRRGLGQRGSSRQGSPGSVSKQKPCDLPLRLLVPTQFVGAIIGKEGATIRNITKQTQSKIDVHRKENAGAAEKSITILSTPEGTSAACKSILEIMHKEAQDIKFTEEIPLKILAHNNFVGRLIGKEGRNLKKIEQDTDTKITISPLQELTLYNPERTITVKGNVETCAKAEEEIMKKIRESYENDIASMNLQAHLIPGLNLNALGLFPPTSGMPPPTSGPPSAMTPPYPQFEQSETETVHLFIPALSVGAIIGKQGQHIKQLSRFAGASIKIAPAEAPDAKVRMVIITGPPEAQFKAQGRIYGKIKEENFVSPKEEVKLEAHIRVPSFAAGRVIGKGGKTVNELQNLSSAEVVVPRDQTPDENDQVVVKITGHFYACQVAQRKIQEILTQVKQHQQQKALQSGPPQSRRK

What was measured:
[1] = biological target: T1, His-tagged OLFML1 (OLFML1^His), exogenously expressed in HEK293T (human) (UniProt Q6UWY5); experiment: co-IP; HEK293T cells co-transfected with His-tagged OLFML1 and Flag-tagged IGF2BP3 constructs (whole or truncated); IP with anti-Flag or anti-His; immunoblot with anti-Flag or anti-His
T1 sequence: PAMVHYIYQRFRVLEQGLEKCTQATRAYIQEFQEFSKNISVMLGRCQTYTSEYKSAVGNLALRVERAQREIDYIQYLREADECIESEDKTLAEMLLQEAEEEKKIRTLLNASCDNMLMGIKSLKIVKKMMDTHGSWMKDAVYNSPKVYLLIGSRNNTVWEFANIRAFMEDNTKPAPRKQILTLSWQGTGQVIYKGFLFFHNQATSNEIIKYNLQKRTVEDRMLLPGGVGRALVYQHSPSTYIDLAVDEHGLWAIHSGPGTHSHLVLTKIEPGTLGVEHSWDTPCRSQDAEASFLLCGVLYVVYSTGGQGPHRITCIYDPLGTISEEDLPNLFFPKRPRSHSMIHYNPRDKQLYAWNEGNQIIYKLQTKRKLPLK

[2] = biological target: T2, Bacteria-expressed, purified His-tagged OLFML1 protein (rOLFML1^His) (human) (UniProt Q6UWY5); experiment: pull-down; purified bacteria-expressed His-tagged OLFML1 on IDA-Nickel His beads, incubated overnight with lysate of 293T cells transfected with IGF2BP3; bound proteins eluted and analysed by western blot; only the target purified
T2 sequence: T1 sequence

[3] = biological target: T3, Olfactomedin-like 1 (OLFML1), endogenously expressed (human (endogenous in HCT8 and CaCo2)) (UniProt Q6UWY5); experiment: co-IP; endogenous proteins in HCT8 and CaCo2 lysate (RIPA buffer); IP with antibodies against OLFML1 or IGF2BP3 on Protein A/G agarose, 4 °C overnight; rabbit IgG as negative control; western blot
T3 sequence: T1 sequence

Row | binding [1] | binding [2] | binding [3] | Substance
1 | binds | binds | – | Flag-tagged IGF2BP3 (IGF2BP3^Flag) (from UniProt O00425 1-579)
2 | – | – | binds | Insulin-like growth factor 2 mRNA-binding protein 3 (IGF2BP3), endogenously expressed (from UniProt O00425 1-579)
